Test results: publication PMC7819943, “Rice protein-binding microarrays: a tool to detect cis-acting elements near promoter regions in rice”
The other results are listed elsewhere or left out.

Amino acid sequences for entries named in this document (tags omitted).
UniProt Q0JBA9, entry or part of it: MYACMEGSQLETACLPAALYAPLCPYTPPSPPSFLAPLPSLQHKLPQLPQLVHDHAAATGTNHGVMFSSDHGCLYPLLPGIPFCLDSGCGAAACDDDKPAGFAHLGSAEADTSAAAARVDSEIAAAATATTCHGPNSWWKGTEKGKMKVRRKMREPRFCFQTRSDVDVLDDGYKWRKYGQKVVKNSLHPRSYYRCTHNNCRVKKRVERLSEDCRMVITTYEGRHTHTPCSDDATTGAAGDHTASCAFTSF

molecular target: OsWRKY34 (Oryza sativa, UniProt Q0JBA9 1-250); test: protein-binding microarray (RPBM); PBS, 2% BSA, 51.3 ng/ul salmon testes DNA, 50 uM zinc acetate, 200 nM TF, 25 C, 1 h; high values mean tight binding; conditions: protein: recombinant; tags: N-terminal polyhistidine and DsRed monomer fusion (pET32a); label: CyDye5-dUTP incorporated in the synthesized complementary strand; 3' TTTTT single-stranded linker to array surface; dsDNA, one strand shown
Method in brief: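 Per-feature fluorescence intensity (arbitrary units), read on an Axon 4000B scanner, is the binding signal. Transcription factors carrying an N-terminal polyhistidine tag and DsRed fusion were expressed in E. coli BL21-CodonPlus and purified on Ni–NTA. A custom Agilent array, made double-stranded by primer extension with Cy5-dUTP and blocked with 2% BSA, was incubated with 200 nM protein in PBS, 2% BSA, salmon testes DNA and 50 µM zinc acetate at 25 °C for 1 h and then washed.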

Going from “TGAAGTTTGACATTTCATCCTATAAGTTATTTTGTTGCAACGGAGTCACCTAGTGCAG” to “AAAAGCAGCGCACAACATGTTCATCCATCATCACCTCACCCGGAGTCACCTAGTGCAG”, the binding signal falls from 8930 fluorescence intensity (a.u.) to 8430 fluorescence intensity (a.u.).

First: CCAACCTTCAGACCAGCGCCATAACTGCCTCACATCTCACCGGAGTCACCTAGTGCAG
Second: CCGGCGTGTTTGTCCTCTGCACCACTCACCCGCCGGTCAGCGGAGTCACCTAGTGCAG
The binding signal of the first is lower: 9180 fluorescence intensity (a.u.) for the first, 9680 fluorescence intensity (a.u.) for the second.

Compared with “CGCTTCGTTCTTAAGCTCTCCTGGCTTATTTTTTCTTTTCCGGAGTCACCTAGTGCAG”, “GCCGACATCGCCCATCTTTGCACCTCCGTGACAGGCCACCCGGAGTCACCTAGTGCAG” is lower in binding signal: 9810 fluorescence intensity (a.u.) for the first, 8650 fluorescence intensity (a.u.) for the second.

Compared with “TGTTTCCGTATTCGTGTCCGATCATATTCGATTCTTATTCCGGAGTCACCTAGTGCAG”, “ATTTTCTGCTGTATTTTGACAACTTTAGTGTCCCATTTATCGGAGTCACCTAGTGCAG” is lower in binding signal: 12700 fluorescence intensity (a.u.) for the first, 9870 fluorescence intensity (a.u.) for the second.

First: GTCACCACTCACCACTCTGCTAAGGCGCGCGTCAGTCAACCGGAGTCACCTAGTGCAG
Second: GTTATTCCTAACAACTCCACTATTTCTTTGGCTCCTAAGCCGGAGTCACCTAGTGCAG
The binding signal of the first is higher: 10500 fluorescence intensity (a.u.) for the first, 9590 fluorescence intensity (a.u.) for the second.

Going from “CGGGACAGGGAAGGTAGAATCAGCTTTCGTTGACCCGCTCCGGAGTCACCTAGTGCAG” to “CCACATCTTCTTACCCTATTGCCACCATCAAGCCTTGCCTCGGAGTCACCTAGTGCAG”, the binding signal rises from 9310 fluorescence intensity (a.u.) to 10300 fluorescence intensity (a.u.).

Compared with “GGCCGGCCGCGGCGGGTGGTGGGGCAGGGCCTGACGACGACGGAGTCACCTAGTGCAG”, “GCAATTACGCACCCAATTGTAGCAAGCCACTCGCAAATTTCGGAGTCACCTAGTGCAG” is lower in binding signal: 9650 fluorescence intensity (a.u.) for the first, 8510 fluorescence intensity (a.u.) for the second.

First: ACTTAGCAGCACTTGTCCCGTTCTCCTGAAGACAGTCCAACGGAGTCACCTAGTGCAG
Second: CGCCGCCGCCGCCGCCACCTCGCCCTCATCGCTGCGCGCTCGGAGTCACCTAGTGCAG
The binding signal of the first is lower: 9480 fluorescence intensity (a.u.) for the first, 9770 fluorescence intensity (a.u.) for the second.

Going from “CATCCACATCATCCTTCTCACCGGTGACGGCGTCCTGGAACGGAGTCACCTAGTGCAG” to “CCTACTAATACTTACTACCTACTCCCTCCGTTCCATGAAACGGAGTCACCTAGTGCAG”, the binding signal rises from 8460 fluorescence intensity (a.u.) to 10200 fluorescence intensity (a.u.).

Going from “GCTATCATTCCGAATTCGTAGTCCTAACAAATATCCCATTCGGAGTCACCTAGTGCAG” to “TCTTTCTTTTAATATATTGGCGTATAATTTTTTTTGCGCGCGGAGTCACCTAGTGCAG”, the binding signal falls from 10600 fluorescence intensity (a.u.) to 8250 fluorescence intensity (a.u.).

Compared with “AATGTTTGACACCGTTGACTTTTTAGTACGTGTTTGTCCACGGAGTCACCTAGTGCAG”, “TGAGCTTCGCGCGCGCGCCGCGGAACTCGAGGGCGGCGCGCGGAGTCACCTAGTGCAG” is lower in binding signal: 30200 fluorescence intensity (a.u.) for the first, 13200 fluorescence intensity (a.u.) for the second.

Going from “CACTTGGCAGGTGCTTTGACCGGTCAAATGAGGTGGTTTACGGAGTCACCTAGTGCAG” to “TGGTTTGGGCTGGTTTCGATTAGCATTTTTTTTACACGCGCGGAGTCACCTAGTGCAG”, the binding signal rises from 11200 fluorescence intensity (a.u.) to 16200 fluorescence intensity (a.u.).

First: GCCAGCGTCAAGACTCCGCACCCTCCCCGCAACCTCTGAACGGAGTCACCTAGTGCAG
Second: GCTCCGCCGGTCATCCGCTTTGCCCCGCCCCGCTGCTCTGCGGAGTCACCTAGTGCAG
The binding signal of the first is lower: 8570 fluorescence intensity (a.u.) for the first, 11300 fluorescence intensity (a.u.) for the second.

Going from “CAACTCCGCGCCACGCGCCTTGCTCGTGCCGCGCCACCGTCGGAGTCACCTAGTGCAG” to “TCTGTGATTTGATGTTTGCCTGTGTTGTGTGCAAAGTTTTCGGAGTCACCTAGTGCAG”, the binding signal rises from 8940 fluorescence intensity (a.u.) to 16100 fluorescence intensity (a.u.).

Compared with “GCCACCGCCCCTACACCTGCGTCTGAGTTTCCCCGTCCCACGGAGTCACCTAGTGCAG”, “TCTCTGCCAGCCGCCCATCGCACGCCGCCTCCGCCGGCCGCGGAGTCACCTAGTGCAG” is higher in binding signal: 9960 fluorescence intensity (a.u.) for the first, 11600 fluorescence intensity (a.u.) for the second.

Going from “AGTTGTAGCCCATATGTTCATCTATATCTCCTTGAAAAAACGGAGTCACCTAGTGCAG” to “GCCGAACCCCTTTTTGCTTGACTTGCTAGTTTGCTTGTAACGGAGTCACCTAGTGCAG”, the binding signal rises from 8470 fluorescence intensity (a.u.) to 11400 fluorescence intensity (a.u.).

Going from “AGAGGGGTGATCAGGTTTAGTTGTTAGTCCACTACTTTATCGGAGTCACCTAGTGCAG” to “TCCGTCATGCCTCAACCATAATTTTTCATCCATCCATCCACGGAGTCACCTAGTGCAG”, the binding signal rises from 8100 fluorescence intensity (a.u.) to 9400 fluorescence intensity (a.u.).

Compared with “AGAAGGAGAAGGCGGGGAGAGGCGGGGCGGCCACGGGAGACGGAGTCACCTAGTGCAG”, “TGCAGTTTGTTGTTTGCACCCGGTGAAACATCTTCTTTTGCGGAGTCACCTAGTGCAG” is lower in binding signal: 12500 fluorescence intensity (a.u.) for the first, 10500 fluorescence intensity (a.u.) for the second.

Going from “ATATGTATGTATTCAGTGCACGCCCATCCTGTCCTCGATTCGGAGTCACCTAGTGCAG” to “GAGGCTGAACCCCATTCCCATGTCTGCTACCCTTCTTTTACGGAGTCACCTAGTGCAG”, the binding signal rises from 9900 fluorescence intensity (a.u.) to 10800 fluorescence intensity (a.u.).

First: ACCGTATCATTGGATTCCGGCTGCCTTTCTCTATGCTTCACGGAGTCACCTAGTGCAG
Second: AAAAAAGTCAACGGCGTCAAACATTTAGGGAAGGAGGGAGCGGAGTCACCTAGTGCAG
The binding signal of the first is lower: 8760 fluorescence intensity (a.u.) for the first, 9190 fluorescence intensity (a.u.) for the second.

Going from “GAGTGTTGTATAAATTGGAGGCTATATAGCTCTCTCCACCCGGAGTCACCTAGTGCAG” to “ATAGCCTATAAAAGGAGGGGCATTGGGAGGCGGGCTATGTCGGAGTCACCTAGTGCAG”, the binding signal falls from 8960 fluorescence intensity (a.u.) to 8950 fluorescence intensity (a.u.).

First: ACCTTGCATCAATGCGGTTCTTCGGCCCAGGCGGAGGCGCCGGAGTCACCTAGTGCAG
Second: CATTTCAGTACTTTGTACCCGGTTCATTTCATTCCACTATCGGAGTCACCTAGTGCAG
The binding signal of the first is higher: 8760 fluorescence intensity (a.u.) for the first, 8510 fluorescence intensity (a.u.) for the second.

Going from “TTCTCAATTGTATTTCTATATGGACTCTAGTGTCCTCTTCCGGAGTCACCTAGTGCAG” to “ATTCCATATGCCAATTCCGATTATTATTTGTATTAATTTACGGAGTCACCTAGTGCAG”, the binding signal rises from 8930 fluorescence intensity (a.u.) to 9370 fluorescence intensity (a.u.).

Going from “ATGACGCCAGCGACATGCATCACACATATATCACTCTTTCCGGAGTCACCTAGTGCAG” to “ACATCGCGTCCTACTCACACCTCCTCATGTTGCTACTCGACGGAGTCACCTAGTGCAG”, the binding signal rises from 8450 fluorescence intensity (a.u.) to 10800 fluorescence intensity (a.u.).

Going from “GGTGCTCCGTCCATAGCTCTCTTGCCTCCGCCCATAAATACGGAGTCACCTAGTGCAG” to “ATGATGTGCGTTGGTTACTACTCCCTCCGTTTCAAAATGTCGGAGTCACCTAGTGCAG”, the binding signal falls from 10900 fluorescence intensity (a.u.) to 9380 fluorescence intensity (a.u.).

Going from “TACGTGTATAGTGGGGCGTGTGGTTGTACAATTTTCATGTCGGAGTCACCTAGTGCAG” to “AGGAATGCATTTGTGGTGGGTGCAGGTGCGCGGGTGGCGACGGAGTCACCTAGTGCAG”, the binding signal falls from 9360 fluorescence intensity (a.u.) to 8200 fluorescence intensity (a.u.).

Compared with “AAACCTCTATCCACGTCATATTTTATTTCTTGCAAGTATTCGGAGTCACCTAGTGCAG”, “ACCTTGTTTTCCTCACCCGACCGTCTGCAAGTTTGCTTCCCGGAGTCACCTAGTGCAG” is lower in binding signal: 9350 fluorescence intensity (a.u.) for the first, 9130 fluorescence intensity (a.u.) for the second.
